Experimental findings from patent US20220347299A1, “FLUORESCENT SYSTEMS FOR BIOLOGICAL IMAGING AND USES THEREOF” (LIGHTOX LIMITED, priority 2019, published 2022) are described below.

This assay has as its system primary, HPV-negative oral squamous carcinoma cells (SJG-26 and SJG-41). Description: CellTitreGlo cell viability assay, cell line not given. The class given is cell-based. The note with it: light or radiation study; cell line not stated (SJG-26 / SJG-41); not irradiated; data not shown.

On to `O=C(CCCCCCC(=O)Nc1ccccc1)NO` [vorinostat], for which the midpoint of inhibition, the IC50, lay at 1600 nM.
